The text below walks through data of PMC4424349.

These are yes or no findings as the source states them, for the method shown. In cells and extracts the contact can be indirect. Tags and fused reporters may be left off the sequences shown.

The target in the test is T1, PfMyoB-GFP (Plasmodium falciparum myosin B with C-terminal GFP) (Plasmodium falciparum 3D7), Q8I465.
T1 chain: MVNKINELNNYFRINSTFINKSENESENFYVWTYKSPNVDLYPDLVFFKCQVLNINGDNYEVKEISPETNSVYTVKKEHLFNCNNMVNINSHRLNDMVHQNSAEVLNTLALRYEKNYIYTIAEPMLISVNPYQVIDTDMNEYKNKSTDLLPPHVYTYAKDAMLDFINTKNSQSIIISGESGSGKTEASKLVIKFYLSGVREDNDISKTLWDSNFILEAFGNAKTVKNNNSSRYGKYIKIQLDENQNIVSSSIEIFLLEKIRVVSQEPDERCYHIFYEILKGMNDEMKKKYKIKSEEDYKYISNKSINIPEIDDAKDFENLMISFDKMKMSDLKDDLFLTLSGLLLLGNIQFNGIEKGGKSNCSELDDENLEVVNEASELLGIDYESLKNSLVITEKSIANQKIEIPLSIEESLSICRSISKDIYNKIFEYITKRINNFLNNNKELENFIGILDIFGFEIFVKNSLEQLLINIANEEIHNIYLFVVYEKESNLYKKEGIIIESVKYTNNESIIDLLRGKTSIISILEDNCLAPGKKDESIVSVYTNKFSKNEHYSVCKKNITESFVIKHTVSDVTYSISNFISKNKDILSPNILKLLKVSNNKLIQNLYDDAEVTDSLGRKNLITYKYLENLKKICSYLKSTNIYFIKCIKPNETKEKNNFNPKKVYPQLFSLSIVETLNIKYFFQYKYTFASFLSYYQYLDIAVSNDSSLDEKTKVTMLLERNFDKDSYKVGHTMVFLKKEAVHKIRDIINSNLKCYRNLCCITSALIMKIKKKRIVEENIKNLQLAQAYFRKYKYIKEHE
The test is described as follows: co-IP; GFP-Trap agarose beads on schizont lysates (0.5% Nonidet P-40, 150 mM NaCl, 10 mM Tris-HCl pH 7.5, diluted to 0.2% detergent), 2 h at 4 °C, washes with 150 mM and 300 mM NaCl; Western blot with anti-GFP, anti-GAP50, anti-GAP45, anti-MTIP; 3D7 lysate as control. The following applies: remark: other sources report otherwise. In general terms: Immunoblotting shows a protein as a band on a membrane.

B1: myosin A tail domain-interacting protein (MTIP), Q8I4W8 1-204 (protein)
chain: MKQECNVCYFNLPDPESTLGPYDNELNYFTWGPGFEYEPEPQRKPLSIEESFENSEESEESVADIQQLEEKVDESDVRIYFNEKSSGGKISIDNASYNARKLGLAPSSIDEKKIKELYGDNLTYEQYLEYLSICVHDKDNVEELIKMFAHFDNNCTGYLTKSQMKNILTTWGDALTDQEAIDALNAFSSEDNIDYKLFCEDILQ
As to B1, the binding entry is given as “no binding”.
